The results in this text go back to article PMC5777258, “Phosphorylation of human enhancer filamentation 1 (HEF1) stimulates interaction with Polo-like kinase 1 leading to HEF1 localization to focal adhesions” (The Journal of Biological Chemistry, 2017).

Amino acid sequences for entries named in this document (tags omitted).
UniProt P53350: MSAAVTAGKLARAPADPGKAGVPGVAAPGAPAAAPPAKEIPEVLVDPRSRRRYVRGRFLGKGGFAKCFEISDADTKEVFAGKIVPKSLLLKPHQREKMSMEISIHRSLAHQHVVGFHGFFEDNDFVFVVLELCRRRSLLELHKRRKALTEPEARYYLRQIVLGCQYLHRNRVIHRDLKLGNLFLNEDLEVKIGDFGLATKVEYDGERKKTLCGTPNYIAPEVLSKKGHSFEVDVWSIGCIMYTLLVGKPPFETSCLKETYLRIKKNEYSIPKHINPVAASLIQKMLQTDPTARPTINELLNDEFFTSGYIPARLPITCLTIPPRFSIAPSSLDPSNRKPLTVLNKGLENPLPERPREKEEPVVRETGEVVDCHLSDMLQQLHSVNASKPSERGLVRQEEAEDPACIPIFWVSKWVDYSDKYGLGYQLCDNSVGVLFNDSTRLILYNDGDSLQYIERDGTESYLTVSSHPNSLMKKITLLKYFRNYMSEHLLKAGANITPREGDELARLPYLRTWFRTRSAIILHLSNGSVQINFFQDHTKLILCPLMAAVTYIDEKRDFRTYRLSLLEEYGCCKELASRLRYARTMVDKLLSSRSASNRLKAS

No constants are given. Whether binding was seen depends on the method and setting. Binding seen in cells or lysates may run through a third protein. Some entries that bind do so weakly or less than the wild type. Where a sequence is shown, tags or fusion partners need not be part of it.

For the assay, the target named is T1, FLAG-HEF1 WT (human enhancer filamentation 1, wild-type, full-length) (human) (UniProt Q14511).
T1 sequence: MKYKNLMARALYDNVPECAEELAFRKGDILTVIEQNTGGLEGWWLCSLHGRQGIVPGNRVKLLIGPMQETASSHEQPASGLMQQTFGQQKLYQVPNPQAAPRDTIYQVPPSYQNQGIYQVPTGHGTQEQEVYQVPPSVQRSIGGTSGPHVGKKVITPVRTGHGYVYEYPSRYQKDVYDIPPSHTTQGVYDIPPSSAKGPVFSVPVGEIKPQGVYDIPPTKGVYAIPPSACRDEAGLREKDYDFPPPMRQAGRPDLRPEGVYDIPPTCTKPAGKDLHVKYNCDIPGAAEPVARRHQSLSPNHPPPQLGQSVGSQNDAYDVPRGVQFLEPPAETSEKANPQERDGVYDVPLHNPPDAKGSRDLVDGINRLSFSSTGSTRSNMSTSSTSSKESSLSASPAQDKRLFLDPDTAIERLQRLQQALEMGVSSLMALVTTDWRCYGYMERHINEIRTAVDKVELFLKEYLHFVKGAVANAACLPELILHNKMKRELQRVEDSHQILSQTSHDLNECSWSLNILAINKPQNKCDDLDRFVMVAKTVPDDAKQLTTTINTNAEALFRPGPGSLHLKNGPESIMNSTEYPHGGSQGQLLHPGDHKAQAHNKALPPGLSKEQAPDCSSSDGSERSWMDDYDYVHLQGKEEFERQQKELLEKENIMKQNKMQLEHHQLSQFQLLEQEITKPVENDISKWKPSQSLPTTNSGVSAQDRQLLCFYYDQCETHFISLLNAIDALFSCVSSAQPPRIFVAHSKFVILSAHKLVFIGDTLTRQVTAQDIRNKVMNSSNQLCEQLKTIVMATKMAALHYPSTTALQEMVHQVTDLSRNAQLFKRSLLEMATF
The assay is described as follows: co-IP; lysates of FLAG-HEF1-transfected cells, thymidine-treated (S phase), asynchronously growing or nocodazole-treated (M phase); immunoprecipitated with anti-FLAG antibody, immunoblotted for Plk1; TBSN buffer (20 mM Tris-Cl pH 8.0, 150 mM NaCl, 0.5% Nonidet P-40), 4 °C. (Immunoblotting shows a protein as a band on a membrane.)

For “Polo-like kinase 1 (Plk1), endogenous (from UniProt P53350 1-603)”, the binding entry is “binds”.
